Laboratory results taken from US20150346214A1, “DETECTION OF MEMBRANE PROTEINS” (priority 2012, published 2015).
At least one structure is not confirmed: it was looked up by name or label, or the drawing left a doubt.

How the values were obtained:
[1] = biological target: E. coli ammonium channel C-terminally fused to green fluorescent protein (AmtB-GFP) (Escherichia coli, UniProt P69681, S65T); conditions: AmtB-GFP trimer in MS buffer with 2x CMC of the detergent; charge state envelopes modelled with a Gaussian
Protocol: The activation energy required to achieve resolved peaks of E. coli ammonium channel C-terminally fused to green fluorescent protein (AmtB-GFP) was assessed for a variety of non-ionic detergents.
AmtB-GFP was extracted from purified membranes (described above) with 1-2% (w/v) of the detergent of interest in Buffer B and incubated for one to three hours at room temperature or overnight at 4° C. Insoluble material was pelleted by centrifugation at 20,000 g for 25 minutes at 4° C. The clarified supernatant was loaded onto small Ni-NTA agarose (Qiagen) drip columns (Bio-spin Chromatography columns, Bio-Rad) and washed with several column volumes of Buffer C (200 mM sodium chloride, 20 mM Imidazole, 5 mM BME, 2× CMC detergent of interest, and 50 mM TRIS, pH 8.0 at room temperature). AmtB-GFP was eluted with two column volumes of Buffer D (100 mM sodium chloride, 250 mM Imidazole, 5 mM BME, 2× CMC detergent of interest, and 50 mM TRIS, pH 8.0 at room temperature). […]
Buffer exchanged protein was analysed on a Q-TOF 2 mass spectrometer (Micromass, Manchester, UK) with a Z-spray source including modifications for protein complexes after introduction of complexes from gold-coated nanoflow capillaries.

AmtB-GFP = AmtB-GFP (Escherichia coli, UniProt P69681, S65T); assay: Mass spectra activation series for AmtB-GFP detergent exchanged from DDM (Example 2, FIG. 1 and 2); set-up: species or system E. coli; conditions: shift from 7,000 m/z to 9,500 m/z, compared with DDM (FIG. 1)

CCCCCCCCOCCOCCOCCOCCOCCO [C8E5, pentaethylene glycol monooctyl ether]
Zavg (mean charge state) [1]: 22.8
charge state reduction of the trimeric complex (AmtB-GFP): eight
